Experimental data taken from PMC11791114.
No constants are given. Whether binding was seen depends on the method and setting. In cells and extracts the contact can be indirect. Some results given as binding are weak or reduced against the parent protein; the word gives no strength.

By UniProt entry, the sequences of proteins in these tests, tags left out.
UniProt Q3TKT4: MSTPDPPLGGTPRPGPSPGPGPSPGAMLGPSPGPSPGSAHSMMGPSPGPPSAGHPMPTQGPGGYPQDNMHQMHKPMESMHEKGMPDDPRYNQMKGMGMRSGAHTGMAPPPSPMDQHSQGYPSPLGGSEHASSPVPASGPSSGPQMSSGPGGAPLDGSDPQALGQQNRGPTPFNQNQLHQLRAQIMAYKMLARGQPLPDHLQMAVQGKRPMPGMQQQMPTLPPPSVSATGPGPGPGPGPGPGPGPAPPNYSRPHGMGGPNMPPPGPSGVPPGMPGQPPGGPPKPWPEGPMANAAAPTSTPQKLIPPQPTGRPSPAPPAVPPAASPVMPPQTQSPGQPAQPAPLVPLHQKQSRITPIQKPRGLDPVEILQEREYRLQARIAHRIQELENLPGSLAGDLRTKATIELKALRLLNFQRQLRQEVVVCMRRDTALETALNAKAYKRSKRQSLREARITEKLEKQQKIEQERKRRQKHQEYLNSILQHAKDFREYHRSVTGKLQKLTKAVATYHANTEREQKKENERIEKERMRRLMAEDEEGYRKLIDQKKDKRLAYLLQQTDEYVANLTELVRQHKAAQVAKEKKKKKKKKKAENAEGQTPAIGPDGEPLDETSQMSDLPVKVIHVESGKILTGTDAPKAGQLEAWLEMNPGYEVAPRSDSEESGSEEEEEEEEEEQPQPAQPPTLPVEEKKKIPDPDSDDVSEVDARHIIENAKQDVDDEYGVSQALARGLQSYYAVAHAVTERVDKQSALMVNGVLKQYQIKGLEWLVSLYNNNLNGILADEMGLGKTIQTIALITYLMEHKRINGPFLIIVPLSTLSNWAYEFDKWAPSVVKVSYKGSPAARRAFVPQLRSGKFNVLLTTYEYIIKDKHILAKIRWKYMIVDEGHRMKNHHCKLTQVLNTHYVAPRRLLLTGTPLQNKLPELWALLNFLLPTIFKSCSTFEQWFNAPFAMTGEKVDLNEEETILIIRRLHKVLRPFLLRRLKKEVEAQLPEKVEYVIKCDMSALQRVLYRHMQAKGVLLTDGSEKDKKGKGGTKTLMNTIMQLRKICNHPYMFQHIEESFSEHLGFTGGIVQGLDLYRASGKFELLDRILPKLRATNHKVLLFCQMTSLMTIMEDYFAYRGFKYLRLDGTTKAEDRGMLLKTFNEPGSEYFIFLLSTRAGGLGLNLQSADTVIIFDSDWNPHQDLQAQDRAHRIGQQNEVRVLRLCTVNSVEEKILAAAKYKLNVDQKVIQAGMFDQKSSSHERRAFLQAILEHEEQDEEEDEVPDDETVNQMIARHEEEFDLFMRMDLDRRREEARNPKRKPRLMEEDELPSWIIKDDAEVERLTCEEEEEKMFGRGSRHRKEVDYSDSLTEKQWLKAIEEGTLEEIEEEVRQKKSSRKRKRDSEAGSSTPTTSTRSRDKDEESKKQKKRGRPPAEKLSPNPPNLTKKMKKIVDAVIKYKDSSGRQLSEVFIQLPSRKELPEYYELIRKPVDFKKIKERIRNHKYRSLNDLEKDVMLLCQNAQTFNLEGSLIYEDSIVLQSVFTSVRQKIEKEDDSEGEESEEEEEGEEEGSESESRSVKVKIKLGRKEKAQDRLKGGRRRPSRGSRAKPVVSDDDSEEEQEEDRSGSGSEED
UniProt Q61103: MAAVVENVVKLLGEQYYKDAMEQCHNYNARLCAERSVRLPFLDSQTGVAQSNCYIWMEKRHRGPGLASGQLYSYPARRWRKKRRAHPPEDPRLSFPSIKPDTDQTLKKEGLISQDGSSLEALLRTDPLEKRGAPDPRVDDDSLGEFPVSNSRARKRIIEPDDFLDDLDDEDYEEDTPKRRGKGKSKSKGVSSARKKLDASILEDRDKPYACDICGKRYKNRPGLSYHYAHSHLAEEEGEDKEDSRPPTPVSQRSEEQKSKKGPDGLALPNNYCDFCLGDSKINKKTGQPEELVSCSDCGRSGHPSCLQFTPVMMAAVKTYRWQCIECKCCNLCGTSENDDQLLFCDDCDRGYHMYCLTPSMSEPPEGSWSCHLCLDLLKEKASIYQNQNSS
UniProt Q62432: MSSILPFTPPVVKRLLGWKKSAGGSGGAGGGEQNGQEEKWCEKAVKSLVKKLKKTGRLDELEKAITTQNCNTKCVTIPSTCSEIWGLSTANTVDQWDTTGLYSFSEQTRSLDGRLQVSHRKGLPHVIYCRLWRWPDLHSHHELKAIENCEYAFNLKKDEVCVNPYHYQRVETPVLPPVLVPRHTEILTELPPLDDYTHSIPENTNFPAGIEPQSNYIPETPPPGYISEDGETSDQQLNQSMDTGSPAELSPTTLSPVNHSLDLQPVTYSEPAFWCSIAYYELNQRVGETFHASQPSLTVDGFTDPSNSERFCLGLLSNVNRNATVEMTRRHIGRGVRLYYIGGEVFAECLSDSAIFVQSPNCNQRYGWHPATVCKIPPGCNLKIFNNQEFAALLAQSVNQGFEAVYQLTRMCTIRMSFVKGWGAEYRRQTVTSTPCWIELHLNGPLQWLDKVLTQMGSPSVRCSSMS
UniProt Q02248: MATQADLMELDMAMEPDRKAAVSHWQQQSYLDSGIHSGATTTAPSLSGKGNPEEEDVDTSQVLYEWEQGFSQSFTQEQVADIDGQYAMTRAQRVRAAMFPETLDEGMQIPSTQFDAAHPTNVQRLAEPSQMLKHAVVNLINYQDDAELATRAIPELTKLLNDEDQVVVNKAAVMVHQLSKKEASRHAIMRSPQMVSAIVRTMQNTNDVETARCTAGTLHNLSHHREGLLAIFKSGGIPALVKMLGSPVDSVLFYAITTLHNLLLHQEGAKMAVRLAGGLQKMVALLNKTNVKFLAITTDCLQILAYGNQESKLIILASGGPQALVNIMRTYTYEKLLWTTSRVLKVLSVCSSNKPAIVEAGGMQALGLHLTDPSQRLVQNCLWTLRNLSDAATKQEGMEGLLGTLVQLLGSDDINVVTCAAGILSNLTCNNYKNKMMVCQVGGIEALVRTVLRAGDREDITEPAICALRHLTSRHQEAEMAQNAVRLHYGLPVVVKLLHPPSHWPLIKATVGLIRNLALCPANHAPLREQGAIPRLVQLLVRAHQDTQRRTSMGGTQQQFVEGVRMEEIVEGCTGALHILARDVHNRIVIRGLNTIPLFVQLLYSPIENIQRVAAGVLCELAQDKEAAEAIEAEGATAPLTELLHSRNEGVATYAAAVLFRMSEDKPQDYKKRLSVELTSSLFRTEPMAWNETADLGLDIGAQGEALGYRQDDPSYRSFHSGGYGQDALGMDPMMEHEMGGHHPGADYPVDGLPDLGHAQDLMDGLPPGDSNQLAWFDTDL
UniProt P42227: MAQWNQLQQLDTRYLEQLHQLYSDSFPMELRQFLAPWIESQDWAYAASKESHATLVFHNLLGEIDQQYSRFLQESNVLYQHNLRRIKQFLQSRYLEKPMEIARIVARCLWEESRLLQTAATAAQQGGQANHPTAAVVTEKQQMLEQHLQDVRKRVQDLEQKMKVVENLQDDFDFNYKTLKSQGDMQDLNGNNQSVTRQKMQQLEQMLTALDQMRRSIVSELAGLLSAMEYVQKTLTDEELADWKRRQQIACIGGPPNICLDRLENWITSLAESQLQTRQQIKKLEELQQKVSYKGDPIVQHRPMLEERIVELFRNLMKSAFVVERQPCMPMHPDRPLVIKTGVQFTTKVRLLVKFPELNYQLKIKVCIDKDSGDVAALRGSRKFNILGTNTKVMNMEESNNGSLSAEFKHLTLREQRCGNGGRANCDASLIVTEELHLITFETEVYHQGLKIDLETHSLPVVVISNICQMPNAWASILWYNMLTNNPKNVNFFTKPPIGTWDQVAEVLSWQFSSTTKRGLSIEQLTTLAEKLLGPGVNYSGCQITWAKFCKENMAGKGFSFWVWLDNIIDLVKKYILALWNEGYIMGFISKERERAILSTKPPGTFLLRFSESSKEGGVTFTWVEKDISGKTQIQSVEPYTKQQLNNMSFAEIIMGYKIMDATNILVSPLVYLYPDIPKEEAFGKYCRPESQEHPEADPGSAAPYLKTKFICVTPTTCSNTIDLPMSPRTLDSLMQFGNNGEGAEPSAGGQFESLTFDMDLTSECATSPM

Assays:
[1] = biological target: BRG1 (mouse (endogenous in E14 ESCs)) (UniProt Q3TKT4); test: co-IP; ESC lysate (1% IGEPAL CA-630, 50 mM Tris-HCl pH 8.0, 150 mM NaCl, protease inhibitor), precleared, target-specific antibody or isotype control 2 h at 4 °C, Protein A/G beads overnight at 4 °C, Western blot
FLAG-DPF2 (mouse) = FLAG-DPF2 (mouse) (UniProt Q61103); test: as above

| binding [1] | binding (FLAG-DPF2 (mouse)) | Substance |
| --- | --- | --- |
| binds |  | SMAD2 (from UniProt Q62432 1-467) |
| binds |  | β-CATENIN (from UniProt Q02248 1-781) |
|  | binds | STAT3 (from UniProt P42227 1-770) |
